Source: paper PMC9681113
No constants are given. Whether binding was seen depends on the method and setting. In cells and extracts the contact can be indirect. These calls come from enrichment with a bait or labelling near it, and not all partners need be listed. Tags and fused reporters may be left off the sequences shown.

How the values were obtained:
Assay in all cases: affinity purification with mass spectrometry; GFP pulldown with GFP Tag Immunomagnetic Beads from lysates of HEK-293 Flp-In T-REx cells expressing EGFP, EGFP-MAB21L1 or mutant EGFP-MAB21L1 after 12 hrs of 1 μg/ml tetracycline; three biological replicates; MaxQuant
[1] = molecular target: T1, GFP-tagged MAB21L1 Arg51Leu (human) (UniProt Q13394)
T1 sequence: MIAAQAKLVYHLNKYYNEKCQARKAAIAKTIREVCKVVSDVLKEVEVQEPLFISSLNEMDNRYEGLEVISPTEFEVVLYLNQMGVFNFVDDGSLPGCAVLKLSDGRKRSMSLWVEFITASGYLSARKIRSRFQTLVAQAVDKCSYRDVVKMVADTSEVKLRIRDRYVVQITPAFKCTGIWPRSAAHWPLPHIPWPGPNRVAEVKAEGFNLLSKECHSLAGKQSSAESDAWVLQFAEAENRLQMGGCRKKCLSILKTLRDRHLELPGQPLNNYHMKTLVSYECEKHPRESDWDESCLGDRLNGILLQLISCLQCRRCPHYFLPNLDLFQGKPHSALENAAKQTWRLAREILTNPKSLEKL

[2] = molecular target: T2, GFP-tagged MAB21L1 Arg51Gln (human) (UniProt Q13394)
T2 sequence: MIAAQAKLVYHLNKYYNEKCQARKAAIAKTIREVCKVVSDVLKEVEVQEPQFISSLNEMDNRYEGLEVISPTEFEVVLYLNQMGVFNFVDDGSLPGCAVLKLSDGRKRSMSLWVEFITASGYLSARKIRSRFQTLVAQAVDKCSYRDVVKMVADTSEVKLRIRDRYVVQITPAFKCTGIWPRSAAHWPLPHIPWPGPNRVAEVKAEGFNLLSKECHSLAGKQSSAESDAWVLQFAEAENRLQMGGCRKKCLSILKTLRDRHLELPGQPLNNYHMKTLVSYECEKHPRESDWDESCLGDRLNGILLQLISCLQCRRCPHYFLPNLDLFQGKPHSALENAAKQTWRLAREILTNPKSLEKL

[3] = molecular target: T3, GFP-tagged wild-type MAB21L1 (human) (UniProt Q13394)
T3 sequence: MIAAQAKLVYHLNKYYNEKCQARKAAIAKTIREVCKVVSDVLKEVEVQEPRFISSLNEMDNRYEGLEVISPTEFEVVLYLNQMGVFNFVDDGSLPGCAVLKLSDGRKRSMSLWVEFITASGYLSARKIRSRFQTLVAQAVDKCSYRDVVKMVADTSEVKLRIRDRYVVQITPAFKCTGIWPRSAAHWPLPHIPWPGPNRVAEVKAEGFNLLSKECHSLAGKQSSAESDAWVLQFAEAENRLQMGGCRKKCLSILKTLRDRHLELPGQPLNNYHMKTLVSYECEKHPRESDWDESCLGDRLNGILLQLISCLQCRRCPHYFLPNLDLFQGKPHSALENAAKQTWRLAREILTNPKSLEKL

Measured: binding

B1: MEIS2 (protein, UniProt O14770 1-477)
chain: MAQRYDELPHYGGMDGVGVPASMYGDPHAPRPIPPVHHLNHGPPLHATQHYGAHAPHPNVMPASMGSAVNDALKRDKDAIYGHPLFPLLALVFEKCELATCTPREPGVAGGDVCSSDSFNEDIAVFAKQVRAEKPLFSSNPELDNLMIQAIQVLRFHLLELEKVHELCDNFCHRYISCLKGKMPIDLVIDERDGSSKSDHEELSGSSTNLADHNPSSWRDHDDATSTHSAGTPGPSSGGHASQSGDNSSEQGDGLDNSVASPGTGDDDDPDKDKKRQKKRGIFPKVATNIMRAWLFQHLTHPYPSEEQKKQLAQDTGLTILQVNNWFINARRRIVQPMIDQSNRAGFLLDPSVSQGAAYSPEGQPMGSFVLDGQQHMGIRPAGLQSMPGDYVSQGGPMGMSMAQPSYTPPQMTPHPTQLRHGPPMHSYLPSHPHHPAMMMHGGPPTHPGMTMSAQSPTMLNSVDPNVGGQVMDIHAQ
binds: all assays above

B2: RBMX2 (protein, UniProt Q9Y388 1-322)
chain: MNPLTKVKLINELNEREVQLGVADKVSWHSEYKDSAWIFLGGLPYELTEGDIICVFSQYGEIVNINLVRDKKTGKSKGFCFLCYEDQRSTILAVDNFNGIKIKGRTIRVDHVSNYRAPKDSEEIDDVTRQLQEKGCGARTPSPSLSESSEDEKPTKKHKKDKKEKKKKKKEKEKADREVQAEQPSSSSPRRKTVKEKDDTGPKKHSSKNSERAQKSEPREGQKLPKSRTAYSGGAEDLERELKKEKPKHEHKSSSRREAREEKTRIRDRGRSSDAHSSWYNGRSEGRSYRSRSRSRDKSHRHKRARRSRERESSNPSDRWRH
binds: all assays above

B3: POP1 (protein, UniProt Q99575 1-1024)
chain: MSNAKERKHAKKMRNQPTNVTLSSGFVADRGVKHHSGGEKPFQAQKQEPHPGTSRQRQTRVNPHSLPDPEVNEQSSSKGMFRKKGGWKAGPEGTSQEIPKYITASTFAQARAAEISAMLKAVTQKSSNSLVFQTLPRHMRRRAMSHNVKRLPRRLQEIAQKEAEKAVHQKKEHSKNKCHKARRCHMNRTLEFNRRQKKNIWLETHIWHAKRFHMVKKWGYCLGERPTVKSHRACYRAMTNRCLLQDLSYYCCLELKGKEEEILKALSGMCNIDTGLTFAAVHCLSGKRQGSLVLYRVNKYPREMLGPVTFIWKSQRTPGDPSESRQLWIWLHPTLKQDILEEIKAACQCVEPIKSAVCIADPLPTPSQEKSQTELPDEKIGKKRKRKDDGENAKPIKKIIGDGTRDPCLPYSWISPTTGIIISDLTMEMNRFRLIGPLSHSILTEAIKAASVHTVGEDTEETPHRWWIETCKKPDSVSLHCRQEAIFELLGGITSPAEIPAGTILGLTVGDPRINLPQKKSKALPNPEKCQDNEKVRQLLLEGVPVECTHSFIWNQDICKSVTENKISDQDLNRMRSELLVPGSQLILGPHESKIPILLIQQPGKVTGEDRLGWGSGWDVLLPKGWGMAFWIPFIYRGVRVGGLKESAVHSQYKRSPNVPGDFPDCPAGMLFAEEQAKNLLEKYKRRPPAKRPNYVKLGTLAPFCCPWEQLTQDWESRVQAYEEPSVASSPNGKESDLRRSEVPCAPMPKKTHQPSDEVGTSIEHPREAEEVMDAGCQESAGPERITDQEASENHVAATGSHLCVLRSRKLLKQLSAWCGPSSEDSRGGRRAPGRGQQGLTREACLSILGHFPRALVWVSLSLLSKGSPEPHTMICVPAKEDFLQLHEDWHYCGPQESKHSDPFRSKILKQKEKKKREKRQKPGRASSDGPAGEEPVAGQEALTLGLWSGPLPRVTLHCSRTLLGFVTQGDFSMAVGCGEALGFVSLTGLLDMLSSQPAAQRGLVLLRPPASLQYRFARIAIEV
binds: all assays above

B4: ERAL1 (protein, UniProt O75616 44-437)
chain: VSCVAGSAFSGPRLASASRSNGQGSALDHFLGFSQPDSSVTPCVPAVSMNRDEQDVLLVHHPDMPENSRVLRVVLLGAPNAGKSTLSNQLLGRKVFPVSRKVHTTRCQALGVITEKETQVILLDTPGIISPGKQKRHHLELSLLEDPWKSMESADLVVVLVDVSDKWTRNQLSPQLLRCLTKYSQIPSVLVMNKVDCLKQKSVLLELTAALTEGVVNGKKLKMRQAFHSHPGTHCPSPAVKDPNTQSVGNPQRIGWPHFKEIFMLSALSQEDVKTLKQYLLTQAQPGPWEYHSAVLTSQTPEEICANIIREKLLEHLPQEVPYNVQQKTAVWEEGPGGELVIQQKLLVPKESYVKLLIGPKGHVISQIAQEAGHDLMDIFLCDVDIRLSVKLLK
binds: all assays above

B5: NPM3 (protein, UniProt O75607 1-178)
chain: MAAGTAAALAFLSQESRTRAGGVGGLRVPAPVTMDSFFFGCELSGHTRSFTFKVEEEDDAEHVLALTMLCLTEGAKDECNVVEVVARNHDHQEIAVPVANLKLSCQPMLSLDDFQLQPPVTFRLKSGSGPVRITGRHQIVTMSNDVSEEESEEEEEDSDEEEVELCPILPAKKQGGRP
binds: all assays above

B6: PBX3 (protein, UniProt P40426 1-434)
chain: MDDQSRMLQTLAGVNLAGHSVQGGMALPPPPHGHEGADGDGRKQDIGDILHQIMTITDQSLDEAQAKKHALNCHRMKPALFSVLCEIKEKTGLSIRGAQEEDPPDPQLMRLDNMLLAEGVSGPEKGGGSAAAAAAAAASGGSSDNSIEHSDYRAKLTQIRQIYHTELEKYEQACNEFTTHVMNLLREQSRTRPISPKEIERMVGIIHRKFSSIQMQLKQSTCEAVMILRSRFLDARRKRRNFSKQATEILNEYFYSHLSNPYPSEEAKEELAKKCSITVSQVSNWFGNKRIRYKKNIGKFQEEANLYAAKTAVTAAHAVAAAVQNNQTNSPTTPNSGSSGSFNLPNSGDMFMNMQSLNGDSYQGSQVGANVQSQVDTLRHVINQTGGYSDGLGGNSLYSPHNLNANGGWQDATTPSSVTSPTEGPGSVHSDTSN
binds: all assays above

B7: SPATS2 (protein, UniProt Q86XZ4 1-545)
chain: MSRKQNQKDSSGFIFDLQSNTVLAQGGAFENMKEKINAVRAIVPNKSNNEIILVLQHFDNCVDKTVQAFMEGSASEVLKEWTVTGKKKNKKKKNKPKPAAEPSNGIPDSSKSVSIQEEQSAPSSEKGGMNGYHVNGAINDTESVDSLSEGLETLSIDARELEDPESAMLDTLDRTGSMLQNGVSDFETKSLTMHSIHNSQQPRNAAKSLSRPTTETQFSNMGMEDVPLATSKKLSSNIEKSVKDLQRCTVSLARYRVVVKEEMDASIKKMKQAFAELESCLMDREVALLAEMDKVKAEAMEILLSRQKKAELLKKMTHVAVQMSEQQLVELRADIKHFVSERKYDEDLGRVARFTCDVETLKKSIDSFGQVSHPKNSYSTRSRCSSVTSVSLSSPSDASAASSSTCASPPSLTSANKKNFAPGETPAAIANSSGQPYQPLREVLPGNRRGGQGYRPQGQKSNDPMNQGRHDSMGRYRNSSWYSSGSRYQSAPSQAPGNTIERGQTHSAGTNGTGVSMEPSPPTPSFKKGLPQRKPRTSQTEAVNS
binds: all assays above

B8: NUSAP1 (protein, UniProt Q9BXS6 1-441)
chain: MIIPSLEELDSLKYSDLQNLAKSLGLRANLRATKLLKALKGYIKHEARKGNENQDESQTSASSCDETEIQISNQEEAERQPLGHVTKTRRRCKTVRVDPDSQQNHSEIKISNPTEFQNHEKQESQDLRATAKVPSPPDEHQEAENAVSSGNRDSKVPSEGKKSLYTDESSKPGKNKRTAITTPNFKKLHEAHFKEMESIDQYIERKKKHFEEHNSMNELKQQPINKGGVRTPVPPRGRLSVASTPISQRRSQGRSCGPASQSTLGLKGSLKRSAISAAKTGVRFSAATKDNEHKRSLTKTPARKSAHVTVSGGTPKGEAVLGTHKLKTITGNSAAVITPFKLTTEATQTPVSNKKPVFDLKASLSRPLNYEPHKGKLKPWGQSKENNYLNQHVNRINFYKKTYKQPHLQTKEEQRKKREQERKEKKAKVLGMRRGLILAED
binds: all assays above
